Results from the supplement of paper PMC3334620.
In all, about 33,000 sequences were measured (“E-score (-0.5 to 0.5)”: median about -0.015, highest 2% from about 0.3 on). This is one part of the list.

Each sequence was assayed against T1, Abf1 (UniProt P14164) (assay: PBM E-score (8-mer binding enrichment) (E-score (-0.5 to 0.5)); higher = stronger / more preferred TF binding). Conditions: protein concentration: 200 nM; construct: GST-full length.
T1 sequence: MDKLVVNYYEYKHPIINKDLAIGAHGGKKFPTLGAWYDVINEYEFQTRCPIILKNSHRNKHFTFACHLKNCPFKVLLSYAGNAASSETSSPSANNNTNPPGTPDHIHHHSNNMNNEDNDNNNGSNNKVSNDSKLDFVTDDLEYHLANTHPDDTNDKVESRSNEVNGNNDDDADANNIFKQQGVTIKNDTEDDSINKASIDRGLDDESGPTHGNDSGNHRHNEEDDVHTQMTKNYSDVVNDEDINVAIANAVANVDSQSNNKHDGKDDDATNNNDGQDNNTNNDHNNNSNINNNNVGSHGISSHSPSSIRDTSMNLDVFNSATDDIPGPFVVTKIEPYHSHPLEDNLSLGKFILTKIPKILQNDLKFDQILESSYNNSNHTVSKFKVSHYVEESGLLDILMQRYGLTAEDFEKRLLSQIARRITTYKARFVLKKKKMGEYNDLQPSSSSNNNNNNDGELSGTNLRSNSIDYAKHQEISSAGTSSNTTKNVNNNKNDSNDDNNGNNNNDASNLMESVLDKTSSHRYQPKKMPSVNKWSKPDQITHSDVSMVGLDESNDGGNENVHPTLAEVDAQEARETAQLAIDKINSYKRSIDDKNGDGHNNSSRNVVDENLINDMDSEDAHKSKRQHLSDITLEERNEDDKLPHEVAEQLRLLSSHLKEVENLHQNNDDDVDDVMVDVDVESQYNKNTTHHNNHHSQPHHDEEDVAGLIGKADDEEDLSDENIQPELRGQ
Outline: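 Yeast transcription factors, full-length or as DNA-binding domains, were expressed with a GST tag using PURExpress in vitro transcription/translation. At about 100-200 nM they were applied to universal all-10-mer Agilent arrays, double-stranded by primer extension on fresh or once-stripped slides. Fluorescent anti-GST detected bound protein, and masliner normalised the scans. E-scores for ungapped eight-base words, pooled with reverse complements, came from the Universal PBM Analysis Suite.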

Row | Sequence | PBM E-score
1 | ACCCGAGT | -0.152
2 | ATAAGAAA | -0.0297
3 | ACTAACCG | -0.183
4 | TACCTACA | 0.0423
5 | AACTTTCC | -0.106
6 | GCTAGCGA | -0.00265
7 | ACGGAGAC | 0.137
8 | GATTAACA | 0.127
9 | ACAAAGCG | -0.0535
10 | GGCGTATA | -0.0363
11 | ACCGAACC | -0.211
12 | ATGCTAGA | 0.052
13 | AAGTTATA | 0.0911
14 | CGTAGGAA | 0.247
15 | ACAGCCGT | 0.0627
16 | TCGCGCCA | -0.242
17 | ATTACTAC | 0.0767
18 | AGACCTGG | -0.286
19 | TCATTAGA | 0.137
20 | AGTTTCGA | -0.113
21 | CCATTGGC | -0.149
22 | ATTAGCAG | 0.1
23 | CGGCTCGA | -0.0781
24 | ATGGATGG | -0.121
25 | CATCCTGG | 0.0462

Some of the entries above, reformatted.
Row	Sequence	PBM E-score
6	GCTAGCGA	-0.00265
13	AAGTTATA	0.0911
16	TCGCGCCA	-0.242
18	AGACCTGG	-0.286

Later entries.

Row | Sequence | PBM E-score
26 | TCTAGTAA | 0.123
27 | ATTACCGG | -0.0837
28 | AGAAAGAA | -0.0104
29 | GCTGCTGA | -0.0614
30 | AGGTGCGA | 0.052
31 | AACCCCCG | -0.297
32 | ATTTTTCC | 0.114
33 | CTGGAAGA | -0.0285
34 | AACCCCAG | -0.118
35 | AACTGCGA | -0.0488
36 | AAACCGGG | -0.12
37 | CCAACGCC | -0.201
38 | ATTGCAAC | -0.11
39 | TCATTCGA | 0.129
40 | TAGATAGA | 0.00508
41 | CAAGCTGG | -0.16
42 | AGGGATAG | -0.0712
43 | AGATCGGC | -0.101
44 | CTAGTTCA | -0.0287
45 | GCGCGTAA | -0.0789
46 | ATTTAGAC | 0.143
47 | AGATGTAG | 0.053
48 | CTTTTTGC | -0.101
49 | AGTCACAC | -0.142
50 | TACTGATA | 0.143

Row | Sequence | PBM E-score
51 | AAAGGCCT | -0.0779
52 | GCAGCGTA | -0.158
53 | AAAGAACC | -0.233
54 | CTGACCGA | -0.173
55 | GCTCTCCA | -0.227
56 | AACTTTCA | 0.1
57 | CGATTCAC | 0.192
58 | AAGAAGCG | -0.0981
59 | AGTCTTGA | -0.0571
60 | AACTGGAC | -0.0466
61 | ATACGCAA | 0.142
62 | ACTGGGGA | -0.204
63 | AGGACACG | -0.0106
64 | AATTATCA | 0.34
65 | CCGGGCTC | -0.278
66 | ACGCCAAG | -0.223
67 | AATAAGCA | 0.12
68 | GAACGAGC | 0.168
69 | AGGGTCGC | 0.0316
70 | GCGGGAAC | -0.0488
71 | GACTGCGA | -0.206
72 | AACCTCCA | -0.22
73 | GATGGTGA | 0.0135
74 | CCCACCAC | -0.156
75 | GAGTGACA | 0.432

Row | Sequence | PBM E-score
76 | GAGGACTA | -0.218
77 | ATCTACCA | -0.0237
78 | ACCGCCTG | -0.184
79 | CACGAACG | 0.372
80 | CGCTGGAG | -0.155
81 | CTAACGTC | 0.18
82 | ATGCCTAA | -0.131
83 | CGAATCTC | -0.071
84 | AGCCAAAC | -0.00711
85 | ATACTAAA | 0.16
86 | ATCGTGAG | 0.223
87 | CGCGTCAA | -0.0482
88 | GGCTTTAA | -0.0881
89 | CAATCGGG | -0.0709
90 | CTGCGTCC | -0.269
91 | GAGATCTC | 0.0386
92 | GGCATTAC | 0.0323
93 | TAGAGACA | 0.00944
94 | AGCAAATG | 0.0179
95 | ATCCTGTA | 0.0698
96 | AGATGAGC | 0.136
97 | TATGTAGA | -0.0892
98 | CACGAGGA | 0.236
99 | CCGAGCTA | -0.0288
100 | CATGCAAG | -0.285

Reprinted: entries 35 to 36
Row | Sequence | PBM E-score
35 | AACTGCGA | -0.0488
36 | AAACCGGG | -0.12

Next part

Row | Sequence | PBM E-score
101 | ATATTTAC | 0.162
102 | GAGTCATA | -0.0654
103 | GGAACGGA | -0.0218
104 | AAAAGTGA | 0.292
105 | ATGGTGGC | -0.387
106 | GGAATATA | 0.0497
107 | CTACAGAG | -0.111
108 | CGCCTACA | -0.119
109 | AGTAACAA | 0.0354
110 | GCACGCAA | -0.164
111 | CGCCTAGC | -0.292
112 | GGTAGTTA | 0.00521
113 | ACGCTGGG | -0.254
114 | CGGCGGGC | -0.0559
115 | GTGATTCA | 0.168
116 | CGATGGAG | 0.111
117 | CGTAATTA | 0.182
118 | CAGATCAC | 0.284
119 | CGTACGAC | 0.417
120 | GGAGTCGA | -0.16
121 | ATGGACGG | 0.227
122 | ACTGGGAT | 0.0496
123 | AGGCAAGG | -0.171
124 | CGGCAGGC | -0.0216
125 | ACATATAC | 0.0202

Row | Sequence | PBM E-score
126 | GGCTGCGA | -0.0617
127 | AGCTAAAG | -0.0956
128 | CAGTCCGC | -0.192
129 | CACCGTGG | 0.0343
130 | ACTACGTG | -0.143
131 | AAACCTTA | 0.042
132 | AAACTATA | 0.153
133 | CATCAAAG | -0.131
134 | ACGACGCC | 0.273
135 | ATGCGAGA | 0.144
136 | CAAATACC | -0.128
137 | CCGCTGCC | -0.12
138 | ACGCCAGC | -0.0567
139 | TAGCCTCA | -0.161
140 | CTCAATCC | 0.00088
141 | GGCGACTA | -0.103
142 | CGCTTGCA | -0.0575
143 | CGCCGCAG | -0.109
144 | CTCCCCTA | -0.0351
145 | ATTTTACA | 0.0107
146 | CTTCGTGC | 0.271
147 | AGGGCGTC | 0.0427
148 | CAACGGAC | -0.12
149 | ATGGGCCC | -0.253
150 | AAAGAATA | 0.099

Fetched one by one from the entries so far (4):
Row | Sequence | PBM E-score
1 | ACCCGAGT | -0.152
141 | GGCGACTA | -0.103
101 | ATATTTAC | 0.162
93 | TAGAGACA | 0.00944

Next results.

Row | Sequence | PBM E-score
151 | GTCCTCTA | -0.201
152 | AGACTTCA | -0.0675
153 | AATAAGAA | 0.141
154 | TCCCGACA | 0.0195
155 | CGATTCAG | -0.0523
156 | GCTGTCTA | 0.00379
157 | CCATTAGC | -0.185
158 | AATTGGTA | 0.146
159 | CACTGAAG | -0.112
160 | CGGGCCTC | -0.193
161 | CGAGTTAA | 0.218
162 | CAAGGTCG | -0.172
163 | AAGAGTCT | -0.254
164 | CTTCAGCC | -0.139
165 | ACGTAGCG | 0.208
166 | ACGACAAA | 0.369
167 | AAAACACC | 0.0509
168 | AGTCGATC | -0.158
169 | TCCTAACA | 0.12
170 | AGCAGGCA | -0.114
171 | TACCACAA | -0.0282
172 | AAGTGAAG | -0.0276
173 | AAACGGCT | -0.131
174 | ACTATCAT | 0.184
175 | ATGGAGTG | -0.187

Row | Sequence | PBM E-score
176 | TCAATCAA | 0.113
177 | AGGTTAGA | -0.252
178 | AGTTCACA | -0.053
179 | CTTTTCCA | -0.25
180 | AGTACTCG | 0.0742
181 | ACTCCGCT | -0.249
182 | CGCCAGGC | -0.189
183 | ATCCCCCC | -0.365
184 | ACCGCAAC | -0.0637
185 | CGTATATC | 0.255
186 | CGTGCCTA | 0.00273
187 | CTCAGGCC | -0.284
188 | GGGTCGTA | 0.0897
189 | GACACGAA | 0.172
190 | GAATCAAC | 0.0931
191 | AGCTCTAG | 0.0626
192 | CATGGGTC | -0.137
193 | TACGTGCA | -0.0879
194 | CACATCAA | 0.177
195 | GACTCCCA | -0.167
196 | GCGTTATA | 0.0304
197 | AGAAGGAT | -0.0175
198 | CCTTGAAG | -0.111
199 | ACCCCATA | -0.124
200 | TAGGGGAA | -0.0804

Row | Sequence | PBM E-score
201 | ACAGTCCC | -0.265
202 | GCCATTAA | 0.0468
203 | CCGAATCA | -0.044
204 | GCATGCAC | -0.0549
205 | CATTAAAG | 0.202
206 | CGCCGGCG | -0.128
207 | CGCTAGAC | -0.146
208 | CTTAAAAC | 0.136
209 | ACAACACC | -0.0773
210 | AATCGGGT | 0.193
211 | CAGTCGTA | 0.0431
212 | GTCTCGCA | 0.0198
213 | GAAGTACC | -0.00875
214 | GAAATAGA | 0.0292
215 | GGCCCCCC | -0.48
216 | CTGCGGGC | -0.124
217 | CTGCGGCC | -0.281
218 | GTTCGCAA | 0.0663
219 | AATATCAG | 0.119
